Measured values as given in publication PMC7431843.
These are yes or no findings as the source states them, for the method shown. In cells and extracts the contact can be indirect. For part of these data: Sequences can lack the tags named with a protein.

Amino acid sequences for entries named in this document (tags omitted). Residues count along the entry.
UniProt O94986: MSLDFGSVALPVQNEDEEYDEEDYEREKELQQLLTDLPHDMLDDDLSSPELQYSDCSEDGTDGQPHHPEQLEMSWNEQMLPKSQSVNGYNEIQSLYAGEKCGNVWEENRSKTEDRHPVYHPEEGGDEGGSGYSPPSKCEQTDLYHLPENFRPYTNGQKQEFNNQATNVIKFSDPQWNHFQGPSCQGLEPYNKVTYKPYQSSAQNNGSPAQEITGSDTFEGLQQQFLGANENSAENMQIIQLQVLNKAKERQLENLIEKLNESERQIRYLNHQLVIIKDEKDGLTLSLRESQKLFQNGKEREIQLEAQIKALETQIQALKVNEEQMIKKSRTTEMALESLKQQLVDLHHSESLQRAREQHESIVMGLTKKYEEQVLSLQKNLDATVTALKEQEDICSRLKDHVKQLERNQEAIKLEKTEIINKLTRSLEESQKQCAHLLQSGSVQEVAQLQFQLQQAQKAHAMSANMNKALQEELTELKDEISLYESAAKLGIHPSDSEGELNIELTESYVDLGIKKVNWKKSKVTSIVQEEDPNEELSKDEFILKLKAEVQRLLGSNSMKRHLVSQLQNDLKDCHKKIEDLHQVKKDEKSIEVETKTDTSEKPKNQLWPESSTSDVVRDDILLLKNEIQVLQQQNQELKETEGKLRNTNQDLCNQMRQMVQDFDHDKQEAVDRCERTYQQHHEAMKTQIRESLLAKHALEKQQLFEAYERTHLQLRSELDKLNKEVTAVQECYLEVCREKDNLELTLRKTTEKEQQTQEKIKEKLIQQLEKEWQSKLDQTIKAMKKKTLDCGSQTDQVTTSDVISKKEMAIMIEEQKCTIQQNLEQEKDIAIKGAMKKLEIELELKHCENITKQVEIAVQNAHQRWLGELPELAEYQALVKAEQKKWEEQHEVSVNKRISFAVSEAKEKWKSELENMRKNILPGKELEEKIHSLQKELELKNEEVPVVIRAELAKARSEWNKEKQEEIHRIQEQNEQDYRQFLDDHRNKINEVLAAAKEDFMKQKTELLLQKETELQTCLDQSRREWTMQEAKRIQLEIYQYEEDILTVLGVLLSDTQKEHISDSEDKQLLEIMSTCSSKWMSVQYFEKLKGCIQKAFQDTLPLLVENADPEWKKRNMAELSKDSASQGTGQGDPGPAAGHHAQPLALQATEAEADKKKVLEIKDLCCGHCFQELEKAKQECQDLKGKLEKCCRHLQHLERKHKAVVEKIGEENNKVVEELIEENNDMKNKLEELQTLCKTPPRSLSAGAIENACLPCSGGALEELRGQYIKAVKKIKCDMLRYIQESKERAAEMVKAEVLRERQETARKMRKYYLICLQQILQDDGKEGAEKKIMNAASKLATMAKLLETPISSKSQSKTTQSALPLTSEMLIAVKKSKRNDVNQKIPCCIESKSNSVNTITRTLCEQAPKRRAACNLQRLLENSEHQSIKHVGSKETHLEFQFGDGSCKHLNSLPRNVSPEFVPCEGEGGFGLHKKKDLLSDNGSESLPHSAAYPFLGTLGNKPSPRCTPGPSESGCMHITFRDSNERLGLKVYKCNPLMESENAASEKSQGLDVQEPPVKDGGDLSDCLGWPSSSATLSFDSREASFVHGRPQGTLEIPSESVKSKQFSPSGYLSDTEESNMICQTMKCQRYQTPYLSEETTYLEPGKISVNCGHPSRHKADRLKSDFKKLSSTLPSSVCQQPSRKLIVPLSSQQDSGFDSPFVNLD
UniProt Q8TEP8, residues 1-2436: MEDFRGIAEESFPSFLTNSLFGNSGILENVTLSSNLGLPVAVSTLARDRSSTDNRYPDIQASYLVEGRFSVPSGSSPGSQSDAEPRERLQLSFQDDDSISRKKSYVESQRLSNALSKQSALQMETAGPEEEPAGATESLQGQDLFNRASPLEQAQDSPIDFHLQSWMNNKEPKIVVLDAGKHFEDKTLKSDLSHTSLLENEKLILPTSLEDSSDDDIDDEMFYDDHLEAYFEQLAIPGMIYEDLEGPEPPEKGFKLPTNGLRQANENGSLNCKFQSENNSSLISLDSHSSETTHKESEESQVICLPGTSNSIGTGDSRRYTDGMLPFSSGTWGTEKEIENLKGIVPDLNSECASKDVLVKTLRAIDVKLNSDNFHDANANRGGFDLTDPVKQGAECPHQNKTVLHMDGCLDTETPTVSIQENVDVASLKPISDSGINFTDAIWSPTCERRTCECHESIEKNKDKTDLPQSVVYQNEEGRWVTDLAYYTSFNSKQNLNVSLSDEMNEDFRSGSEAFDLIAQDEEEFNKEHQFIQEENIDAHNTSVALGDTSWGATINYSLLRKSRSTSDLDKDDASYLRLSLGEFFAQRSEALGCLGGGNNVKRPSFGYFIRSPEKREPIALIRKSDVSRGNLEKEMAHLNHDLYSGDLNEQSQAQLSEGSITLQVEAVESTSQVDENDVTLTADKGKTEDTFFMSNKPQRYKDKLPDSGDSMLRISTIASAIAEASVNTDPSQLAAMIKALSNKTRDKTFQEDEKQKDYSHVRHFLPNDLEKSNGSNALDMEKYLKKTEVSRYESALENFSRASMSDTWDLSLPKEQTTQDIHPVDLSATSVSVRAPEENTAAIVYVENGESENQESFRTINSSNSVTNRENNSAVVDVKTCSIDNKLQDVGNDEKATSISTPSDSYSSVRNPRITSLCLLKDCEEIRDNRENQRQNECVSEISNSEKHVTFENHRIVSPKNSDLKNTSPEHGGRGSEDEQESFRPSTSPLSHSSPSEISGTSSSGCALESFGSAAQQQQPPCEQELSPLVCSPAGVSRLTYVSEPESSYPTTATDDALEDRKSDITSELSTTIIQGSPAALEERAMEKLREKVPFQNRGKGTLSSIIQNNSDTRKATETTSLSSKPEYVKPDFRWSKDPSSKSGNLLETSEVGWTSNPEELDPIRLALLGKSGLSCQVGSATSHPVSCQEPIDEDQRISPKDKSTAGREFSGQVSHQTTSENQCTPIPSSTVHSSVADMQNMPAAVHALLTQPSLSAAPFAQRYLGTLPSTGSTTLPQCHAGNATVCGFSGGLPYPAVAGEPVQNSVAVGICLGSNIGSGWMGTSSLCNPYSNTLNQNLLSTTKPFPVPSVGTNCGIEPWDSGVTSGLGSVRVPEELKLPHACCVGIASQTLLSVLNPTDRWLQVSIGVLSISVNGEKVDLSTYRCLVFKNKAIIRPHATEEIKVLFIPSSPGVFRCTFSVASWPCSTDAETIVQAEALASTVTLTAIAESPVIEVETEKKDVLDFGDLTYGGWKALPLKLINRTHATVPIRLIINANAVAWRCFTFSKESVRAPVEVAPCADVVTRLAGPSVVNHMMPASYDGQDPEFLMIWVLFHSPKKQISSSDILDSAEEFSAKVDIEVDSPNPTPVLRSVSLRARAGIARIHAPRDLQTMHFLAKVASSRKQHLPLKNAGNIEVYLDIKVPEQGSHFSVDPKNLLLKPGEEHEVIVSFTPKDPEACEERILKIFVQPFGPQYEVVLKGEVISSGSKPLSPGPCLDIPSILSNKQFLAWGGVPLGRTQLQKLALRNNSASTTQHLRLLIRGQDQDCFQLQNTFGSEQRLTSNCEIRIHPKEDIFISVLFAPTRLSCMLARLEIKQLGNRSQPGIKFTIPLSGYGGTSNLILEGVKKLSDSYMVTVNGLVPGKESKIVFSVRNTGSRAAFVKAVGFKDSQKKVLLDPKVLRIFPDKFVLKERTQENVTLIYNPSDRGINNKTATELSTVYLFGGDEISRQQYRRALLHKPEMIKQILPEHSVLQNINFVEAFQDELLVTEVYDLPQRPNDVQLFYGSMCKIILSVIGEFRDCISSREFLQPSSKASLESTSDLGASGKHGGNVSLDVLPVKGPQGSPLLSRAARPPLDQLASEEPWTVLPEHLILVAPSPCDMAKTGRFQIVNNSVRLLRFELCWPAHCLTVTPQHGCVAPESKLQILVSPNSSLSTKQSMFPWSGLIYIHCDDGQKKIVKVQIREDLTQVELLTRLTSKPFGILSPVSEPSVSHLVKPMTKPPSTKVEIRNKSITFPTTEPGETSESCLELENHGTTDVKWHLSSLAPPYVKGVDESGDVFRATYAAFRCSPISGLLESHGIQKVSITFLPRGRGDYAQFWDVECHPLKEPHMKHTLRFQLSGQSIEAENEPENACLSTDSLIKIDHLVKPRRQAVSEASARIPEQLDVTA

Columns and labels:
Test in all cases: co-IP; reciprocal co-immunoprecipitation after coexpression in HEK293T cells (24 h); TNTE lysis buffer (Tris-HCl pH 7.5, 120 mM NaCl, 1% Triton X-100, 1 mM EDTA); anti-FLAG M2 affinity gel, or rabbit polyclonal mCherry, RFP or GFP antibodies with Protein G Sepharose; beads washed 6x with lysis buffer supplemented with 500 mM NaCl; immunoblot
BirA*-Flag-CEP152 = BirA*-Flag-CEP152 (UniProt O94986)
Flag-CEP135 = target: T1, Flag-CEP135 (UniProt Q66GS9)
T1 sequence: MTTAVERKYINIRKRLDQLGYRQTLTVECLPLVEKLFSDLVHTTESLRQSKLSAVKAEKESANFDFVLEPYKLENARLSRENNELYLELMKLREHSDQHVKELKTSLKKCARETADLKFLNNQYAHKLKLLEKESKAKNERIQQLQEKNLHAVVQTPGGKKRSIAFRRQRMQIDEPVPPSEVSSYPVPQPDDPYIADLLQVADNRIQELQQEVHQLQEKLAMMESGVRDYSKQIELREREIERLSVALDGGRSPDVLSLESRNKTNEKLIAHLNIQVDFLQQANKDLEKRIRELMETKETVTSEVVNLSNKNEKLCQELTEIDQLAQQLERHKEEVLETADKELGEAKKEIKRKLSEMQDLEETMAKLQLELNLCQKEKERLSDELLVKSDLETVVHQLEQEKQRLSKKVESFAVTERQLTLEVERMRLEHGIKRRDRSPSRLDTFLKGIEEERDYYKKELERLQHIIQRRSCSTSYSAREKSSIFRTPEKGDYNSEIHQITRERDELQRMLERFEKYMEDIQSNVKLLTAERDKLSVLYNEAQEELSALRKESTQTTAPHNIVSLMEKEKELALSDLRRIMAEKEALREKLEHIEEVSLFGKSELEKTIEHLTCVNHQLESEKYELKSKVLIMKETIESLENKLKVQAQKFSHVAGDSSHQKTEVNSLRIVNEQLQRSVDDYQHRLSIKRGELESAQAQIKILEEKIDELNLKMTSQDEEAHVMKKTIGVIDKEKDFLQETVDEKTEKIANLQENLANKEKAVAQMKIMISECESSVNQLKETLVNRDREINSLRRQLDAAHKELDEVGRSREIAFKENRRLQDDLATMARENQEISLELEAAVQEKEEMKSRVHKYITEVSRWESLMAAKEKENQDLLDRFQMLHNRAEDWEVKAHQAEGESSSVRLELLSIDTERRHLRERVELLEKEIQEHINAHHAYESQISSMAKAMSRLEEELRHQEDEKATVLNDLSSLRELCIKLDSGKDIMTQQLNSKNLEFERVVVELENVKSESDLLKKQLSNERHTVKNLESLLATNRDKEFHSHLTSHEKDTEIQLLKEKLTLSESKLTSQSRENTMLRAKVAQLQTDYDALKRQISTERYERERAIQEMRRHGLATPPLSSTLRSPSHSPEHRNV

Flag-CEP192 (1–2436) = Flag-CEP192 (1–2436) (UniProt Q8TEP8)

binding (BirA*-Flag-CEP152): no binding
binding (Flag-CEP135): no binding
binding (Flag-CEP192 (1–2436)): no binding
B1: RFP-FAM46C (protein, UniProt Q5VWP2 1-391)
chain: MAEESSCTRDCMSFSVLNWDQVSRLHEVLTEVVPIHGRGNFPTLEITLKDIVQTVRSRLEEAGIKVHDVRLNGSAAGHVLVKDNGLGCKDLDLIFHVALPTEAEFQLVRDVVLCSLLNFLPEGVNKLKISPVTLKEAYVQKLVKVCTDTDRWSLISLSNKNGKNVELKFVDSIRRQFEFSVDSFQIILDSLLFFYDCSNNPISEHFHPTVIGESMYGDFEEAFDHLQNRLIATKNPEEIRGGGLLKYSNLLVRDFRPTDQEEIKTLERYMCSRFFIDFPDILEQQRKLETYLQNHFAEEERSKYDYLMILRRVVNESTVCLMGHERRQTLNLISLLALRVLAEQNIIPSATNVTCYYQPAPYVSDGNFSNYYVAHPPVTYSQPYPTWLPCN
